{
  "source": "paper PMC6465247",
  "binders": {"B1": {"name": "SWITCH 1/DYAD (SWI1), yeast two-hybrid fusion (protein, UniProt Q9FGN8 1-639)", "chain": "MSSTMFVKRNPIRETTAGKISSPSSPTLNVAVAHIRAGSYYEIDASILPQRSPENLKSIRVVMVSKITASDVSLRYPSMFSLRSHFDYSRMNRNKPMKKRSGGGLLPVFDESHVMASELAGDLLYRRIAPHELSMNRNSWGFWVSSSSRRNKFPRREVVSQPAYNTRLCRAASPEGKCSSELKSGGMIKWGRRLRVQYQSRHIDTRKNKEGEESSRVKDEVYKEEEMEKEEDDDDGNEIGGTKQEAKEITNGNRKRKLIESSTERLAQKAKVYDQKKETQIVVYKRKSERKFIDRWSVERYKLAERNMLKVMKEKNAVFGNSILRPELRSEARKLIGDTGLLDHLLKHMAGKVAPGGQDRFMRKHNADGAMEYWLESSDLIHIRKEAGVKDPYWTPPPGWKLGDNPSQDPVCAGEIRDIREELASLKRELKKLASKKEEEELVIMTTPNSCVTSQNDNLMTPAKEIYADLLKKKYKIEDQLVIIGETLRKMEEDMGWLKKTVDENYPKKPDSTETPLLLEDSPPIQTLEGEVKVVNKGNQITESPQNREKGRKHDQQERSPLSLISNTGFRICRPVGMFAWPQLPALAAATDTNASSPSHRQAYPSPFPVKPLAAKRPLGLTFPFTIIPEEAPKNLFNV"}},
  "key": {"[1]": {"molecular_target": "T1, PDS5A^1-809, yeast two-hybrid fusion (Arabidopsis thaliana) (UniProt B6EUB3)", "T1 sequence": "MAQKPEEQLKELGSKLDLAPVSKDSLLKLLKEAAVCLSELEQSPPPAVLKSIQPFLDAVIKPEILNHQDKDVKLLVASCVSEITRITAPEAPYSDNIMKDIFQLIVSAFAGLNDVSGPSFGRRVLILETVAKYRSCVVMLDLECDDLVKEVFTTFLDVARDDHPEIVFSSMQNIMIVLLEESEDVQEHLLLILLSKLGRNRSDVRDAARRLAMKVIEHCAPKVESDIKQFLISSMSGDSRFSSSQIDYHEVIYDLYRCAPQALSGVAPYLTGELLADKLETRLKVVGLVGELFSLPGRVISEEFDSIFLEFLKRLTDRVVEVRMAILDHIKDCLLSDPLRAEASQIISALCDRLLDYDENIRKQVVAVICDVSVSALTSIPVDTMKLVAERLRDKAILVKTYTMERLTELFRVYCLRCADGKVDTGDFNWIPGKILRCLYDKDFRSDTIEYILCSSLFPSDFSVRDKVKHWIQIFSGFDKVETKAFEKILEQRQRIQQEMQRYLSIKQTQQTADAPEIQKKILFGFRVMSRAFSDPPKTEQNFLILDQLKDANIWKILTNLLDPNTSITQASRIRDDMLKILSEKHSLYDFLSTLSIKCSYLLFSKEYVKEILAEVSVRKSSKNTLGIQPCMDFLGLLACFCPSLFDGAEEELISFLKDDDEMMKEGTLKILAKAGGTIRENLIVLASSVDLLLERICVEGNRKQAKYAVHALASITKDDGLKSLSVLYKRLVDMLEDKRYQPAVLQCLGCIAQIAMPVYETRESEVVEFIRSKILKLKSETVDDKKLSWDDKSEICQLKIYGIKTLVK", "experiment": "two-hybrid; Matchmaker Gold system (Clontech), pGADT7-GW and pGBKT7-GW fusions co-transformed into yeast AH109; growth on SD/-Leu -Trp -His"}, "[2]": {"molecular_target": "T2, SMC3, yeast two-hybrid fusion (Arabidopsis thaliana) (UniProt Q56YN8)", "T2 sequence": "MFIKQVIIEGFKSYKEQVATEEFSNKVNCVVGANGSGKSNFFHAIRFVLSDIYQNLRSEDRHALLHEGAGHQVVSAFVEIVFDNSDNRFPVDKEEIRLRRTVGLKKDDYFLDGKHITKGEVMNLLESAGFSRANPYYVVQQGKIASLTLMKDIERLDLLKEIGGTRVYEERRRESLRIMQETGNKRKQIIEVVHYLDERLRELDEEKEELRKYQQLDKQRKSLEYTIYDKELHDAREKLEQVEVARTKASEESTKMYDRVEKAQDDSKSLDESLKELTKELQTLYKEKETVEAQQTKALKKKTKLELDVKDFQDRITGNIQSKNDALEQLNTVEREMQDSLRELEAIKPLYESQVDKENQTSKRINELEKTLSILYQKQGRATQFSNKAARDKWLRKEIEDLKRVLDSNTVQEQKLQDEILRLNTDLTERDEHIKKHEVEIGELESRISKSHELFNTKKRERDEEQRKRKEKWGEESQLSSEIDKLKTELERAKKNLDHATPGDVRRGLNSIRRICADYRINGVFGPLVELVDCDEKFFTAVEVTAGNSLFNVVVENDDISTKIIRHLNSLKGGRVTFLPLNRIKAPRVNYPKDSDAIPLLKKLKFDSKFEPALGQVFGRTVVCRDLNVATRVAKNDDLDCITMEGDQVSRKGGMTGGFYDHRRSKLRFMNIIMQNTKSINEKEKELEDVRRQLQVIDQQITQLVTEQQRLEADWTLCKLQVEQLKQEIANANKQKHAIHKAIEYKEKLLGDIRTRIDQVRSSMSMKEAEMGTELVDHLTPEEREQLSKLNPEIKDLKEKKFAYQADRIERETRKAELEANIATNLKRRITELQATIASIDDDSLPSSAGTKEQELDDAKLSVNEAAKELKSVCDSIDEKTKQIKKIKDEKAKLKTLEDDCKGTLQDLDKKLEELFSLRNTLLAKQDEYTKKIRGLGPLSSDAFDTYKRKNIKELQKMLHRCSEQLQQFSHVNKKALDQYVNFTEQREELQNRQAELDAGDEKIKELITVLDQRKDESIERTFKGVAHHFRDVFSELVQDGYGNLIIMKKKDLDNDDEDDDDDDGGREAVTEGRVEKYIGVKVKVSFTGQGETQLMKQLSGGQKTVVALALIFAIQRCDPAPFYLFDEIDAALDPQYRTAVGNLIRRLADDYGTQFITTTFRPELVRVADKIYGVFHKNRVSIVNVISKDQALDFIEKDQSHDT", "experiment": "two-hybrid; Matchmaker Gold system (Clontech), pGADT7-GW and pGBKT7-GW fusions co-transformed into yeast AH109; growth on SD/-Leu -Trp -His"}},
  "note": "No constants are given. Whether binding was seen depends on the method and setting. Some binding calls cover weakened binding; strength is not graded here. Where a sequence is shown, tags or fusion partners need not be part of it.",
  "data": [
    {"binder": "B1", "values": [
      {"measurement": "binding", "setting": "[1]", "result": "binds"},
      {"measurement": "binding", "setting": "[2]", "result": "no binding"}
    ]}
  ]
}
